Assay results from publication PMC11014988.
These are yes or no findings as the source states them, for the method shown. In cells and extracts the contact can be indirect. Some results given as binding are weak or reduced against the parent protein; the word gives no strength. Sequences can lack the tags named with a protein.

T1: Mdm34-HA (yeast (S. cerevisiae; endogenous locus, strains derived from YPH499)) (UniProt P53083)
T1 sequence: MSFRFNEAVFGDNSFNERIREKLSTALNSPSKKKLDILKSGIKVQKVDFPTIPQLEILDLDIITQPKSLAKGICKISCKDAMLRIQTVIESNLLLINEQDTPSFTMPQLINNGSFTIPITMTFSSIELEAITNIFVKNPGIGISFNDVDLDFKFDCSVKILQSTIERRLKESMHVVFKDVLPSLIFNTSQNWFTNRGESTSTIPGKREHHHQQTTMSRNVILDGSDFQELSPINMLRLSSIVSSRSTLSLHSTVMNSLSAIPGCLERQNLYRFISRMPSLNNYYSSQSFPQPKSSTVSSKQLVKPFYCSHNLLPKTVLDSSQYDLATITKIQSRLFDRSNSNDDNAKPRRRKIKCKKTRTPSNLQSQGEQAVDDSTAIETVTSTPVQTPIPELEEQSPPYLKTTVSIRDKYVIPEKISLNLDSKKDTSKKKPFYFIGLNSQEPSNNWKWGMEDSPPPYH

B1: Oxa1 precursor (protein, UniProt P39952 1-402)
chain: MFKLTSRLVTSRFAASSRLATARTIVLPRPHPSWISFQAKRFNSTGPNANDVSEIQTQLPSIDELTSSAPSLSASTSDLIANTTQTVGELSSHIGYLNSIGLAQTWYWPSDIIQHVLEAVHVYSGLPWWGTIAATTILIRCLMFPLYVKSSDTVARNSHIKPELDALNNKLMSTTDLQQGQLVAMQRKKLLSSHGIKNRWLAAPMLQIPIALGFFNALRHMANYPVDGFANQGVAWFTDLTQADPYLGLQVITAAVFISFTRLGGETGAQQFSSPMKRLFTILPIISIPATMNLSSAVVLYFAFNGAFSVLQTMILRNKWVRSKLKITEVAKPRTPIAGASPTENMGIFQSLKHNIQKARDQAERRQLMQDNEKKLQESFKEKRQNSKIKIVHKSNFINNKK
modifications: 35S-methionine (radiolabeled)
B2: mature form of Oxa1 (protein, UniProt P39952 43-402)
chain: NSTGPNANDVSEIQTQLPSIDELTSSAPSLSASTSDLIANTTQTVGELSSHIGYLNSIGLAQTWYWPSDIIQHVLEAVHVYSGLPWWGTIAATTILIRCLMFPLYVKSSDTVARNSHIKPELDALNNKLMSTTDLQQGQLVAMQRKKLLSSHGIKNRWLAAPMLQIPIALGFFNALRHMANYPVDGFANQGVAWFTDLTQADPYLGLQVITAAVFISFTRLGGETGAQQFSSPMKRLFTILPIISIPATMNLSSAVVLYFAFNGAFSVLQTMILRNKWVRSKLKITEVAKPRTPIAGASPTENMGIFQSLKHNIQKARDQAERRQLMQDNEKKLQESFKEKRQNSKIKIVHKSNFINNKK
modifications: 35S-methionine (radiolabeled)

Target: T1, Mdm34-HA (yeast (S. cerevisiae; endogenous locus, strains derived from YPH499))
Assay: co-IP; radiolabeled precursor from reticulocyte lysate incubated 5 min with semi-intact cells of wild type or Mdm34-HA cells; lysed in 10 mM Tris pH 7.5, 150 mM NaCl, 0.5 mM EDTA, 0.5% Triton X-100; HA antibody and Protein A beads, 1 h at 4 °C; SDS-PAGE and autoradiography

| Binder | binding |
| --- | --- |
| B1 | binds |
| B2 | no binding |
